Record: PubChem BioAssay AID1259308 (NCATS, 2017)
Purpose: 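Genes whose loss raises luciferase production in HEK293 cells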 (primary screen). Cells: human HEK293 embryonic kidney cells stably expressing firefly luciferase (HEK-CMV-Luc2-Hygro). Knock-down reagent: single siRNA against human genes, 0.8 pmol siRNA per well. Timing: 72 h. Measurement: 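Luciferase light (ONE-Glo) measured on one replicate plate set and viability (CellTiter-Glo) on the other, scaled to a negative control siRNA, with robust z-scores and luciferase per cell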. Reading the numbers: total luciferase, z-score and total luciferase, % of control: higher = more reporter protein produced; luciferase per cell, z-score: higher = more reporter output per viable cell; viable cells, % of control: higher = more viable cells. Call rule: 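An siRNA counts as active if its total luciferase robust z-score exceeds 3; genes with two or more such siRNAs out of three were retested with fresh siRNAs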. Meaning of the calls: active = raised luciferase; inactive = no rise.
This is an unselected part of about 59,000 reagents tested. Of all reagents, about 1,510 (2.6%) were called active. 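Calls use total luciferase alone and ignore viability, so some active siRNAs may act by altering cell number.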 Entries without a mark were called inactive. The numbers tell different reagents against one gene apart.

gene	reagent	total luciferase, z-score	total luciferase, % of control	luciferase per cell, z-score	viable cells, % of control
GPATCH4 (GeneID 54865)	1	-2.11	40	-1.34	63.5
GPATCH4 (GeneID 54865)	2	0.338	88.6	0.22	93.4
GPATCH4 (GeneID 54865)	3	0.475	91.3	0.337	93.4
SLC8A3 (GeneID 6547)	1	0.497	91.8	0.0776	100
SLC8A3 (GeneID 6547)	2	-1.85	45.1	-1.52	75.2
SLC8A3 (GeneID 6547)	3	-0.121	79.5	-0.478	101
NAP1L5 (GeneID 266812)	1	2.46	131	1.94	87.9
NAP1L5 (GeneID 266812)	2	-0.535	71.2	-0.95	102
NAP1L5 (GeneID 266812)	3	-0.298	76	-0.898	108
RPS10P9 (GeneID 730187)	1	-0.897	64	-0.295	77.4
RPS10P9 (GeneID 730187)	2	1.06	103	1.17	84.4
RPS10P9 (GeneID 730187)	3	1.89	119	2.15	75.8
NEXN (GeneID 91624)	1	-0.231	77.3	0.157	82.9
NEXN (GeneID 91624)	2	1.39	109	0.752	100
NEXN (GeneID 91624)	3	1.14	104	0.889	92.4
LEFTY1 (GeneID 10637)	1	-1.36	54.8	-1.23	84.5
LEFTY1 (GeneID 10637)	2	-1.43	53.4	-1.62	91.4
LEFTY1 (GeneID 10637)	3	2.63	134	1.77	94.2
OR4D1 (GeneID 26689)	1	0.0718	83.3	0.63	78.9
OR4D1 (GeneID 26689)	2	-1.08	60.4	-1.04	88.8
OR4D1 (GeneID 26689)	3	1.25	107	0.321	110
NAE1 (GeneID 8883)	1	-0.124	79.4	-0.52	102
NAE1 (GeneID 8883)	2	-0.267	76.6	0.322	78.6
NAE1 (GeneID 8883)	3	-0.758	66.8	-0.641	88.4
HOMER3 (GeneID 9454)	1	0.132	84.5	-0.413	105
HOMER3 (GeneID 9454)	2	-1.78	46.4	-2.31	95.4
HOMER3 (GeneID 9454)	3	-0.65	68.9	-1.16	105
C2orf81 (GeneID 388963)	1	-0.217	77.6	0.00338	86.6
C2orf81 (GeneID 388963)	2	-0.521	71.5	-0.17	83.6
C2orf81 (GeneID 388963)	3	1.41	110	0.847	98.2
AFF3 (GeneID 3899)	1	0.0739	83.4	-0.0101	93.4
AFF3 (GeneID 3899)	2	-0.198	77.9	-0.471	98.6
AFF3 (GeneID 3899)	3	-1.17	58.5	-1.09	87.2
HAPLN1 (GeneID 1404)	1	0.261	87.1	-0.109	100
HAPLN1 (GeneID 1404)	2	-0.305	75.8	-0.468	95.8
HAPLN1 (GeneID 1404)	3	1.29	108	1.21	87.5
KCNH7 (GeneID 90134)	1	-1.16	58.9	-1.61	101
KCNH7 (GeneID 90134)	2	-0.115	79.6	0.0868	86.9
KCNH7 (GeneID 90134)	3	0.297	87.8	-0.341	107
VIPR2 (GeneID 7434)	1	0.804	97.9	0.946	85.3
VIPR2 (GeneID 7434)	2	0.509	92	-0.0814	105
VIPR2 (GeneID 7434)	3	2.08	123	4.29	44.5
TENT4B (GeneID 64282)	1	-0.188	78.2	0.377	79.1
TENT4B (GeneID 64282)	2	-1.4	54	-1.24	83.7
TENT4B (GeneID 64282)	3	-0.882	64.3	-0.672	85.8
TRE17 (retired record) (GeneID 440414)	1	-0.332	75.3	0.417	75.4
TRE17 (retired record) (GeneID 440414)	2	-0.438	73.2	0.352	74.5
TRE17 (retired record) (GeneID 440414)	3	1.05	103	0.918	90.3
GFY (GeneID 100507003)	1	2.04	122	1.59	90.1
GFY (GeneID 100507003)	2	0.639	94.6	1.02	80.8
GFY (GeneID 100507003)	3	-0.475	72.4	-1.13	109
TBC1D2B (GeneID 23102)	1	0.594	93.7	-0.255	112
TBC1D2B (GeneID 23102)	2	1.09	104	0.549	100
TBC1D2B (GeneID 23102)	3	4.15 (active)	164	2.13	105
SCD (GeneID 6319)	1	0.00343	82	-0.348	100
SCD (GeneID 6319)	2	-1.05	60.9	-1.62	104
SCD (GeneID 6319)	3	0.387	89.6	-0.065	102
RAB13 (GeneID 5872)	1	0.571	93.2	0.822	83.9
RAB13 (GeneID 5872)	2	-0.407	73.8	-0.525	94.7
RAB13 (GeneID 5872)	3	-0.839	65.2	-0.938	93.3
USP35 (GeneID 57558)	1	-2.12	39.7	-2.05	76.1
USP35 (GeneID 57558)	2	-0.668	68.6	-0.57	89.1
USP35 (GeneID 57558)	3	0.144	84.7	-0.171	99.1
CIT (GeneID 11113)	1	-1.48	52.5	-1.38	84.3
CIT (GeneID 11113)	2	-0.236	77.2	-0.25	92.1
CIT (GeneID 11113)	3	-0.251	76.9	-0.0106	86.2
DQX1 (GeneID 165545)	1	0.175	85.4	-0.108	98.1
DQX1 (GeneID 165545)	2	-0.619	69.6	-0.66	92.5
DQX1 (GeneID 165545)	3	3.16 (active)	145	2.34	87.3
FAM24B (GeneID 196792)	1	0.255	87	-0.266	104
FAM24B (GeneID 196792)	2	-0.705	67.9	-1.27	106
FAM24B (GeneID 196792)	3	-0.69	68.2	-1.1	102
CLTB (GeneID 1212)	1	-0.715	67.7	-0.898	95.8
CLTB (GeneID 1212)	2	-2.86	25	-2.56	54.9
CLTB (GeneID 1212)	3	-0.0471	81	0.286	83.9

Not a retest: entries from further up.
gene	reagent	total luciferase, z-score	total luciferase, % of control	luciferase per cell, z-score	viable cells, % of control
NEXN (GeneID 91624)	2	1.39	109	0.752	100
NEXN (GeneID 91624)	3	1.14	104	0.889	92.4
LEFTY1 (GeneID 10637)	1	-1.36	54.8	-1.23	84.5
LEFTY1 (GeneID 10637)	2	-1.43	53.4	-1.62	91.4
LEFTY1 (GeneID 10637)	3	2.63	134	1.77	94.2
OR4D1 (GeneID 26689)	1	0.0718	83.3	0.63	78.9
OR4D1 (GeneID 26689)	2	-1.08	60.4	-1.04	88.8
OR4D1 (GeneID 26689)	3	1.25	107	0.321	110
NAE1 (GeneID 8883)	1	-0.124	79.4	-0.52	102
NAE1 (GeneID 8883)	2	-0.267	76.6	0.322	78.6
NAE1 (GeneID 8883)	3	-0.758	66.8	-0.641	88.4
HOMER3 (GeneID 9454)	1	0.132	84.5	-0.413	105
